Not every detail of the peptide structures is certain; ends, links or a residue may be inferred. Bridge positions count the residues as written; N and C are the ends. Square brackets hold non-standard residues; d marks the D form. Ends that are not written are not given here. Peptide text beside a SMILES is read from it. S5 = C=CCCC[C@](C)(N)C(=O)O
What was measured:
primary HIV-1 isolates = assay: Inhibition of infection by primary HIV-1 isolates in PBMC; assay type: cell-based; settings: group M and one group O isolate
CA proteins = target: T1, CA proteins (Human immunodeficiency virus type 1 group M subtype B, UniProt P12493); assay: Cell-free in vitro assembly of mature-like particles, electron microscopy; assay type: biochemical, HIV-1; settings: CA 50 μM
T1 construct: made in house

[1] = Circular dichroism, secondary structure in solution; assay type: physicochemical; settings: 20 mM Tris pH8.0, 15% acetonitrile, 250 μM, 20° C.

Compound: CSCC[C@@H]1NC(=O)[C@H](Cc2c[nH]c3ccccc23)NC(=O)[C@@](C)(NC(=O)[C@H](CCCCN)NC(=O)[C@@H](NC(=O)[C@H](CCC(=O)O)NC(=O)[C@H](CCC(N)=O)NC(=O)[C@H](C)N)C(C)C)CCCC=CCCC[C@@](C)(C(=O)N[C@H](C(=O)N[C@@H](CC(C)C)C(=O)N[C@@H](CC(C)C)C(=O)N[C@H](C(=O)N[C@@H](C)C(=O)N[C@@H](CCCCN)C(=O)N[C@@H](CCCCN)C(=O)N[C@@H](CCCCN)C(N)=O)C(C)C)[C@@H](C)O)NC(=O)[C@H]([C@@H](C)O)NC1=O [NYAD-203, AQEVKXWMTXTLLVAKKK] (H-AQEVK[S5]WMT[S5]TLLVAKKK-NH2; staple 6-10)
- Inhibition of primary HIV-1 isolates (primary HIV-1 isolates): showed inhibition against all primary isolates tested

Compound: CSCC[C@@H]1NC(=O)[C@H](Cc2c[nH]c3ccccc23)NC(=O)[C@@](C)(NC(=O)[C@H](CCCCN)NC(=O)[C@@H](NC(=O)[C@H](CCC(=O)O)NC(=O)[C@H](CCC(N)=O)NC(=O)[C@H](C)N)C(C)C)CCCC=CCCC[C@@](C)(C(=O)N[C@H](C(=O)N[C@@H](CC(C)C)C(=O)N[C@@H](CC(C)C)C(=O)N[C@H](C(=O)N[C@@H](C)C(N)=O)C(C)C)[C@@H](C)O)NC(=O)[C@H]([C@@H](C)O)NC1=O [NYAD-201, AQEVKXWMTXTLLVA] (H-AQEVK[S5]WMT[S5]TLLVA-NH2; staple 6-10)
- Disruption of in vitro assembly of tube-like CA particles (CA proteins; 0.25- and 0.5-fold molar equivalents): integrity of tube-like particles was greatly damaged
- Disruption of in vitro assembly of tube-shaped CA particles (CA proteins; 1-, 3- and 5-fold molar equivalents): assembly of tube-shaped particles were completely blocked

Compound: AQEVKNWMTETLLVA-NH2 (C-terminus assumed) [NYAD-209]
- Secondary structure in solution (CD spectrum) [1]: does not exist as a-helical structure in solution
